1 molecule from patent publication US20130280252A1, “METHOD FOR SELECTING PATIENT TO BE GIVEN DRUG FOR TREATING SEPTICEMIA” (MOCHIDA PHARMACEUTICAL CO., LTD., priority 2011, published 2013) can be followed below.

This series relates to cecal ligation and puncture-induced peritonitis rabbit model (rabbit CLP model). The series can be described thus: Rabbit CLP sepsis model, F1024S-D2(3) administered (Example 1). Type of series: in vivo. To be noted: 10 mg/kg i.v. The method, then: A cecal ligation and puncture-induced peritonitis rabbit model (rabbit CLP model; CLP for cecal ligation and puncture) was used as the sepsis model to verify the improvement in efficacy of the therapeutic agent for sepsis when a patient to be administered the therapeutic agent for sepsis (F1024S-D2(3)) was selected using the sCD14-ST concentration as index. The rabbit CLP model was prepared using male rabbits, New Zealand white, each weighing 1.5 kg to 1.99 kg on arrival (Kitayama Labes Co., Ltd.), which had their cecum punctured under anesthesia at two places to make holes each measuring 2 cm to release the cecal contents into the peritoneal cavity according to the method described by Keith A et al (Journal of Surgical Research, Vol. 29, 189 (1980)). In order to stabilize the postsurgical state, all the operated individuals were intravenously administered 60 mg/kg of Shiomarin (Latamoxef Sodium for administration by injection, Shionogi & Co., Ltd.) two hours after surgery.
Blood was sampled at intervals before and after surgery to measure the sCD14-ST concentrations in the blood. The sCD14-ST concentrations in the blood were measured by the method described in Example 3 in WO2009/142303. In this model, the pathology progresses within several hours, resulting in death within 7 to 8 hours after surgery in the earliest cases. Because the measured values of the sCD14-ST concentration in the blood can only be known five to six hours after blood sampling, administering the therapeutic agent only after checking the results is belated. Therefore, the administration timing of the therapeutic agent was set to two hours after surgery, and the blood sCD14-ST concentration at the time when the therapeutic agent was administered was later checked with reference to blood sCD14-ST concentration transition data. Using the respective sCD14-ST concentrations in the blood before surgery of the individuals as normal values, twice the normal values were set as the respective cut-off values. Thus, the survival rates of the cases where the sCD14-ST concentrations in the blood were at least twice the normal values at the time of administration of the therapeutic agent were compared with that of the control cases (see Table 1). The therapeutic agent-administered cases were intravenously administered 10 mg/kg of F1024S-D2(3). The control cases were intravenously administered 10 mg/kg of human immunoglobulin (hIg) in lieu of F1024S-D2(3).
The transition of the sCD14-ST concentration in the blood reflects the severity of sepsis.

B1: F1024S-D2(3): modified form of an anti-CD14 antibody in which the domain 2 of urinary trypsin inhibitor (UTI) is bound to the anti-CD14 antibody; fusion protein (antibody)
heavy: QIQLVQSGPELKKPGESVKISCKASGYTFTDYAMNWVKQAPGNGLKWMGWINTQTGKPTYADDFKQRFVFSLETSASTAYLQINNLNIEDTATYFCTRSTFYYSSYIYGWYFDFWGPGTMVTVSSASTKGPSVFPLAPCSRSTSESTAALGCLVKDYFPEPVTVSWNSGALTSGVHTFPAVLQSSGLYSLSSVVTVPSSSLGTKTYTCNVDHKPSNTKVDKRVESKYGPPGPSGPAPEFLGGPSVFLFPPKPKDTLMISRTPEVTCVVVDVSQEDPEVQFNWYVDGVEVHNAKTKPREEQFNSTYRVVSVLTVLHQDWLNGKEYKCKVSNKGLPSSIEKTISKAKGQPREPQVYTLPPSQEEMTKNQVSLTCLVKGFYPSDIAVEWESNGQPENNYKTTPPVLDSDGSFFLYSRLTVDKSRWQEGNVFSCSVMHEALHNHYTQKSLSLSLGKGSTVAACNLPIVSGPCRAFIKLWAFDAVKGKCVLFPYGGCQGNGNKFDSEKECREYCGVPGDGDEELLRFSN
light: DIVMTQSPTSISISVGERVTMNCKASQNVGSNVDWYQQKTGQSPKLLIYKASNRYTGVPDRFTGSGSGTDFTFTISNMQAVDLAVYYCMQSNTNPPWTFGGGTKLELKRTVAAPSVFIFPPSDEQLKSGTASVVCLLNNFYPREAKVQWKVDNALQSGNSQESVTEQDSKDSTYSLSSTLTLSKADYEKHKVYACEVTHQGLSSPVTKSFNRGEC
Turning to B1, the “Blood sCD14-ST concentration 3 hr after administration” value runs as follows: (Severity Especially high) 521 pg/mL; (Severity High) 1156 pg/mL; (Severity Medium) 497 pg/mL. The “Blood sCD14-ST concentration 6 hr after administration” value (Severity High) worked out at 952 pg/mL and the “Blood sCD14-ST concentration 6 hr after administration” value (Severity Medium) came to 91 pg/mL.
